# Results: PubChem BioAssay AID504444 (National Center for Advancing Translational Sciences (NCATS), 2011)
# Out of some 360,000 compounds screened, about 7,500 (2.1%) were called active. Inconclusive means that the source gave no clear call. Such entries were picked first, then a sample of the others. The call rests on the fitted dose curve; in most records, active means well fitted inhibition curve with a large enough effect; inconclusive means small, poorly fitted or top-dose-only effect, or effect the other way; inactive means flat fitted curve, though single readings scatter. A potency beside an inconclusive call is a rough fit, not a confirmed value.
# Experiment: Nrf2 qHTS screen for inhibitors; further: nearly all actives have a fitted effect of over 60% in size
# Conditions: A549 ARE-Fluc reporter, luciferase luminescence, 18-24 h; series mostly up to 46 µM
# Method in brief: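 A549 ARE_Fluc cells (5000/well, 5% FBS OPTI-MEM) pre-incubated 2 h, then treated with compounds 18-24 h at 37C/5% CO2 in concentration-response. CellTiter-Fluor viability read first; BugLite luciferase luminescence after 15 min at room temperature gives Nrf2 activity.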
# Potency means the concentration at half of the fitted maximal effect.
row,Structure (SMILES),Potency
1,CC1CC(C)CN(CCCNS(=O)(=O)c2ccc3c(c2)oc(=O)n3C)C1 (stereo unspecified),inactive
2,NS(=O)(=O)c1ccc(CNC(=S)NC2CCCCC2)cc1,"inconclusive: 16.4 µM [falling, partial curve, poor fit]"
3,O=C(CI)Nc1cccc2cccnc12,"inconclusive: 1.46 µM [falling, full curve]"
4,Cc1nc2ccccc2n1CC(O)COc1ccccc1Cl (stereo unspecified),"inconclusive: 20.6 µM [falling, single point]"
5,COc1ccc(-c2cc(C(F)(F)F)nc(SCC(=O)N(C)Cc3ccccc3)n2)cc1,"inconclusive: 25.9 µM [falling, partial curve, poor fit]"
6,O=C(NCCc1csc(-c2ccccc2)n1)c1ccco1,"inconclusive: 5.17 µM [falling, partial curve, poor fit]"
7,S=C(NCc1ccc(Cl)cc1)Nc1ccncc1,active: 13 µM
8,O=C(O)c1cccnc1SC1CC(=O)N(c2cccc(C(F)(F)F)c2)C1=O (stereo unspecified),"inconclusive: 32.6 µM [falling, single point]"
9,COc1cccc(C(=O)Nc2nc(C)cs2)c1,"inconclusive: 5.01 µM [activator, full curve]"
10,COc1cccc2c1C(=O)c1c(O)c3c(c(O)c1C2=O)CC(O)(C(C)=O)CC3OC1CC(N(C)C)C(O)C(C)O1 (stereo unspecified),active: 2.31 µM
11,CCC1(c2ccccc2)NC(=O)N(CC(=O)Nc2cc(S(=O)(=O)N3CCCCCC3)ccc2OC)C1=O (stereo unspecified),"inconclusive: 23.1 µM [falling, partial curve]"
12,O=C(O)c1ccc(NC(CSCc2cccc(F)c2)C(=O)O)c([N+](=O)[O-])c1 (stereo unspecified),"inconclusive: 1.84 µM [activator, full curve, poor fit]"
13,COc1ccccc1C1(CC(=O)N2CCCCC2)CCOC(C(C)C)C1 (stereo unspecified),"inconclusive: 29.1 µM [falling, single point]"
14,O=S(=O)(CC(O)(c1ccccc1)c1ccccc1)CC(O)(c1ccccc1)c1ccccc1,"inconclusive: 18.4 µM [falling, single point]"
15,O=C(NCCc1ccc(Cl)cc1)c1cc2c(s1)-c1ccccc1OC2,"inconclusive: 14.6 µM [falling, partial curve]"
16,CC(C)c1ccc(C2NC(=O)NC3=C2CCc2ccccc23)cc1 (stereo unspecified),"inconclusive: 29.1 µM [falling, single point]"
17,Oc1ccccc1N1CCN(c2ccc3ccccc3n2)CC1,"inconclusive: 29.1 µM [activator, single point]"
18,Cc1cccc(NC(=O)c2ccc(Cn3nc(N4CCN(c5ccccc5)CC4)ccc3=O)o2)c1C,active: 20.6 µM
19,CCS(=O)(=O)Nc1cccc(C2=NN(S(=O)(=O)c3ccc(F)cc3)C(c3cccs3)C2)c1 (stereo unspecified),"inconclusive: 29.1 µM [falling, single point]"
20,CCN(CC(=O)Nc1ccc(OC)cc1)CC(=O)Nc1sc2c(c1C(=O)OC)CCCC2,"inconclusive: 18.4 µM [falling, single point]"
21,Cc1ccc(OCc2cc(C(=O)NCCc3cccnc3)no2)cc1C,"inconclusive: 6.51 µM [falling, partial curve, poor fit]"

# Ordered by length of the SMILES (smallest number first): 3 of the compounds above.
row,Structure (SMILES),Potency
21,Cc1ccc(OCc2cc(C(=O)NCCc3cccnc3)no2)cc1C,"inconclusive: 6.51 µM [falling, partial curve, poor fit]"
13,COc1ccccc1C1(CC(=O)N2CCCCC2)CCOC(C(C)C)C1 (stereo unspecified),"inconclusive: 29.1 µM [falling, single point]"
8,O=C(O)c1cccnc1SC1CC(=O)N(c2cccc(C(F)(F)F)c2)C1=O (stereo unspecified),"inconclusive: 32.6 µM [falling, single point]"

# The results go on.

row,Structure (SMILES),Potency
1,CC1CC(C)CN(C(=O)C(C)N2CCN(S(=O)(=O)c3ccc(C(F)(F)F)cc3)CC2)C1 (stereo unspecified),active: 18.4 µM
2,O=C(CCNS(=O)(=O)c1ccc2c(c1)CCCC(=O)N2)NCc1ccc(Cl)cc1,"inconclusive: 7.31 µM [falling, partial curve, poor fit]"
3,Cc1nn(-c2ccccc2)c(N)c1N=Nc1ccc(Cl)cc1,"inconclusive: 11.6 µM [activator, partial curve, poor fit]"
4,Cc1cc(Cl)ccc1OCCSc1nnc(-c2cccs2)o1,inactive
5,O=C1C=C(c2cccc(Cl)c2)C[C@@H](c2ccc3c(c2)OCO3)C1,"inconclusive: 14.6 µM [falling, single point]"
6,COc1ccc(C)cc1NC(=O)CN(C)S(=O)(=O)c1ccc2[nH]c(=O)oc2c1,"inconclusive: 10.3 µM [activator, partial curve]"
7,CN(C)c1cccc(-c2csc(N3CCC(C(N)=O)CC3)n2)c1,"inconclusive: 1.16 µM [activator, full curve]"
8,O=C(c1ccccc1-c1nc(-c2ccc(Cl)cc2)no1)N1CCCC1,"inconclusive: 18.4 µM [activator, partial curve, poor fit]"
9,CC(C)(C)Nc1nc(N2CCCC2)nc(N2CCCC2)n1,"inconclusive: 29.1 µM [falling, single point]"
10,Cc1ccc(C)c(SC2=NS(=O)(=O)c3ccccc32)c1,inactive
11,Cc1ccc(NC(=O)C2COc3ccccc3O2)cc1C (stereo unspecified),"inconclusive: 16.4 µM [activator, partial curve, poor fit]"
12,CC1(C)Oc2ccc3ccc(=O)oc3c2/C(=C/Nc2cccc(O)c2)C1=O,inactive
13,CCc1ccc(-c2[nH]nc3nc(-c4cc(OC)ccc4OC)cc(C(=O)O)c23)cc1,"inconclusive: 10.3 µM [activator, partial curve]"
14,COC(=O)c1sccc1S(=O)(=O)N(CC(=O)Nc1cc(F)ccc1F)c1ccc(C)c(C)c1,"inconclusive: 23.1 µM [activator, single point]"
15,Cc1c(C(C)C)c(=O)n(-c2ccc(S(=O)(=O)NC3CCCCC3)cc2)n1C,active: 14.6 µM
16,O=[N+]([O-])c1ccc(Sc2cc[n+]([O-])c3ccccc23)c([N+](=O)[O-])c1,active: 16.4 µM
17,CN1C(=O)/C(=C/c2ccccc2F)Sc2ccc(C(=O)NCC3CCCO3)cc21 (stereo unspecified),"inconclusive: 29.1 µM [falling, single point]"
18,CCCCCc1ccc(C2=NNC(=O)CC2)cc1,"inconclusive: 29.1 µM [falling, single point]"
19,COc1ccc(N/N=C(C)/C(=N/O)C(=O)Nc2ccccc2)cc1,"inconclusive: 29.1 µM [activator, single point]"
20,O=C1COc2ccc(C(=O)CSc3nc4ccccc4c(=O)n3-c3ccc(Cl)c(Cl)c3)cc2N1,"inconclusive: 29.1 µM [falling, single point]"
